Our source for the binding values is publication doi:10.1101/112466.

No constants are given. Whether binding was seen depends on the method and setting. Binding seen in cells or lysates may run through a third protein. Some binding calls cover weakened binding; strength is not graded here.

Holding throughout (test): FRET or BRET
Background: BRET reads energy transfer from a luciferase to a nearby fluorophore.

The target in assay [1] is FZD10 (human) (UniProt Q9ULW2).
The target of assay [2] is CCR6 (human) (UniProt P51684).
Assay [3] deals with CrlC (Dictyostelium discoideum) (UniProt Q6UUW6).
The target of assay [4] is CarB (Dictyostelium discoideum) (UniProt P34907).
The target of assay [5] is leucine-rich repeat containing receptor LGR5 (human) (UniProt O75473).

B1: FZD10 (receptor, UniProt Q9ULW2 21-581)
chain: ISSMDMERPGDGKCQPIEIPMCKDIGYNMTRMPNLMGHENQREAAIQLHEFAPLVEYGCHGHLRFFLCSLYAPMCTEQVSTPIPACRVMCEQARLKCSPIMEQFNFKWPDSLDCRKLPNKNDPNYLCMEAPNNGSDEPTRGSGLFPPLFRPQRPHSAQEHPLKDGGPGRGGCDNPGKFHHVEKSASCAPLCTPGVDVYWSREDKRFAVVWLAIWAVLCFFSSAFTVLTFLIDPARFRYPERPIIFLSMCYCVYSVGYLIRLFAGAESIACDRDSGQLYVIQEGLESTGCTLVFLVLYYFGMASSLWWVVLTLTWFLAAGKKWGHEAIEANSSYFHLAAWAIPAVKTILILVMRRVAGDELTGVCYVGSMDVNALTGFVLIPLACYLVIGTSFILSGFVALFHIRRVMKTGGENTDKLEKLMVRIGLFSVLYTVPATCVIACYFYERLNMDYWKILAAQHKCKMNNQTKTLDCLMAASIPAVEIFMVKIFMLLVVGITSGMWIWTSKTLQSWQQVCSRRLKKKSRRKPASVITSGGIYKKAQHPQKTHHGKYEIPAQSPTCV
Consider B1, for which the binding result in assay [1] is listed as “binds”.

B2: CCR6 (receptor, UniProt P51684 1-374)
chain: MSGESMNFSDVFDSSEDYFVSVNTSYYSVDSEMLLCSLQEVRQFSRLFVPIAYSLICVFGLLGNILVVITFAFYKKARSMTDVYLLNMAIADILFVLTLPFWAVSHATGAWVFSNATCKLLKGIYAINFNCGMLLLTCISMDRYIAIVQATKSFRLRSRTLPRSKIICLVVWGLSVIISSSTFVFNQKYNTQGSDVCEPKYQTVSEPIRWKLLMLGLELLFGFFIPLMFMIFCYTFIVKTLVQAQNSKRHKAIRVIIAVVLVFLACQIPHNMVLLVTAANLGKMNRSCQSEKLIGYTKTVTEVLAFLHCCLNPVLYAFIGQKFRNYFLKILKDLWCVRRKYKSSGFSCAGRYSENISRQTSETADNDNASSFTM
As to B2, the binding entry in assay [2] is listed as “no binding”.

B3: CrlC (receptor, UniProt Q6UUW6 1-361)
chain: MGIEESQICNPSDREFLSVDILNIVTSSLSLMGSALTIISYIWKKVRRHRIQKQQIQQQQQQIEKGGLLSSSITIGNGSSHYGGIGGGGGSGNGTGIGAIGGPHGTYKQPTSKLPLLIFMLSIADFFTSFFIIISQSYLINNSKSYSTPYSPDLKIHFSPCIILRAIIQFFFLSTFFWTTCISYYLFHQLSSPGEEKYLLAIFNVVSWGIPFAISMVITMTNSIVVNSDGWCEVAKPMELSLWFLPLFLCLLVCSIYYFRLRRLFRSKFEYRLQINDRLKQLDSTISRRLTLYIVVFVICWLPDVIQHFISFFSKCTFFPLLILQNILTPSQGFWNFWIYSYTNKIARFTPSNDENKRLLQ
As for B3, the binding entry in assay [3] is “no binding”.

B4: CarB (receptor, UniProt P34907 1-375)
chain: MTIMSDIIAQRTILLIADFSSIIGCSLVLIGFWRLKLLRNHITKIISLFCATSLFKDVISTIITLLYKPDQTESGFPCYLHAIVITFGSLACWLWTLMLSFSIYNLIVRREPEPERFEKFYFCLCYGLPLISTIVMLSTHIIQPVGGWCWIGDNYDGYRFGLFYGPFFFIWGTSAILVGLTSKYTYSVIRSSVSDNKDKHMTYQFKLINYIVVFLVCWVFAIVNRILNGLNQFPTVPNVLHTYFSVSHGFYASITFIYNNPLMWRYFGAKFLLIFSKFGLFVQAQQRLELNKNNNNPSPIMRSKNALDNGADSSVVELPCLSKADSLSLDAENNIETPKENENQNHHHHHHHHHHHNHYNNNNNNNNINNKNDMI
For the molecule B4, the binding entry in assay [4] was “no binding”.

B5: leucine-rich repeat containing receptor LGR5 (receptor, UniProt O75473 22-907)
chain: GSSPRSGVLLRGCPTHCHCEPDGRMLLRVDCSDLGLSELPSNLSVFTSYLDLSMNNISQLLPNPLPSLRFLEELRLAGNALTYIPKGAFTGLYSLKVLMLQNNQLRHVPTEALQNLRSLQSLRLDANHISYVPPSCFSGLHSLRHLWLDDNALTEIPVQAFRSLSALQAMTLALNKIHHIPDYAFGNLSSLVVLHLHNNRIHSLGKKCFDGLHSLETLDLNYNNLDEFPTAIRTLSNLKELGFHSNNIRSIPEKAFVGNPSLITIHFYDNPIQFVGRSAFQHLPELRTLTLNGASQITEFPDLTGTANLESLTLTGAQISSLPQTVCNQLPNLQVLDLSYNLLEDLPSFSVCQKLQKIDLRHNEIYEIKVDTFQQLLSLRSLNLAWNKIAIIHPNAFSTLPSLIKLDLSSNLLSSFPITGLHGLTHLKLTGNHALQSLISSENFPELKVIEMPYAYQCCAFGVCENAYKISNQWNKGDNSSMDDLHKKDAGMFQAQDERDLEDFLLDFEEDLKALHSVQCSPSPGPFKPCEHLLDGWLIRIGVWTIAVLALTCNALVTSTVFRSPLYISPIKLLIGVIAAVNMLTGVSSAVLAGVDAFTFGSFARHGAWWENGVGCHVIGFLSIFASESSVFLLTLAALERGFSVKYSAKFETKAPFSSLKVIILLCALLALTMAAVPLLGGSKYGASPLCLPLPFGEPSTMGYMVALILLNSLCFLMMTIAYTKLYCNLDKGDLENIWDCSMVKHIALLLFTNCILNCPVAFLSFSSLINLTFISPEVIKFILLVVVPLPACLNPLLYILFNPHFKEDLVSLRKQTYVWTRSKHPSLMSINSDDVEKQSCDSTQALVTFTSSSITYDLPPSSVPSPAYPVTESCHLSSVAFVPCL
On to B5, for which the binding result in assay [5] was “binds”.
